Earlier results as cited in patent US20020061509A1, “Screening assay for the identification of agents which alter expression of PTH-rP” (Osteo Screen, priority 1996, published 2002).

Conditions: cited from earlier work

Question: For `C[C@@H]1C[C@H]2[C@@H]3CCC4=CC(=O)C=C[C@]4(C)[C@@]3(F)[C@@H](O)C[C@]2(C)[C@@]1(O)C(=O)CO` [Dexamethasone, pregna-1,4-diene-3,20-dione,9-fluoro-11,17,21-trihydroxy-16-methyl-(11β,16α), reference compound], which solubility in water is on record?
Answer: Its solubility in water is “practically insoluble”.
